Data taken from the supplement of paper PMC4604168 (melanoma cell lines).
The other results are listed elsewhere or left out. Single values are uncertain, as repeats are few or missing.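 The apoptosis fraction was the count of cleaved-PARP antibody-stained nuclei relative to all DNA-stained nuclei, imaged in 1,536-well plates. Screening doses were set so most cells survived, and baseline and induced cleaved-PARP levels vary greatly across cell lines.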

What was measured:
Experiment in all cases: cleaved PARP positive nuclei fraction relative to DMSO control; melanoma cells; higher = more apoptosis
Conditions in all cases: library dose: low library concentration; 72 h
501Mel = tested on: 501Mel
A101D = tested on: A101D
A2058 = tested on: A2058
C32 = tested on: C32
CBRC008 = tested on: CBRC008 (line from a melanoma biopsy)
CBRC014 = tested on: CBRC014 (line from a melanoma biopsy)
CBRC016 = tested on: CBRC016 (line from a melanoma biopsy)
CBRC017 = tested on: CBRC017 (line from a melanoma biopsy)
COLO792 = tested on: COLO792
COLO800 = tested on: COLO800
COLO829 = tested on: COLO829
G361 = tested on: G361
IPC-298 = tested on: IPC-298
IST-MEL1 = tested on: IST-MEL1
LB2518-MEL = tested on: LB2518-MEL
LOXIMVI = tested on: LOXIMVI

Compound: Cc1cc(Nc2cc(N3CCN(C)CC3)nc(/C=C/c3ccccc3)n2)n[nH]1 + CCN(CC)CCCCNc1ncc2cc(-c3cc(OC)cc(OC)c3)c(NC(=O)NC(C)(C)C)nc2n1 [PD173074] (first compound 0.04 µM, partner dose 0.1 µM)
- cleaved PARP positive nuclei fraction (501Mel): 74.2%
- cleaved PARP positive nuclei fraction (A101D): 26%
- cleaved PARP positive nuclei fraction (A2058): 47.7%
- cleaved PARP positive nuclei fraction (C32): 94.2%
- cleaved PARP positive nuclei fraction (CBRC008): 22.5%
- cleaved PARP positive nuclei fraction (CBRC014): 92.4%
- cleaved PARP positive nuclei fraction (CBRC016): 42.8%
- cleaved PARP positive nuclei fraction (CBRC017): 111%
- cleaved PARP positive nuclei fraction (COLO792): 178%
- cleaved PARP positive nuclei fraction (COLO800): 82.8%
- cleaved PARP positive nuclei fraction (COLO829): 237%
- cleaved PARP positive nuclei fraction (G361): 60.7%
- cleaved PARP positive nuclei fraction (IPC-298): 128%
- cleaved PARP positive nuclei fraction (IST-MEL1): 86.6%
- cleaved PARP positive nuclei fraction (LB2518-MEL): 71.2%
- cleaved PARP positive nuclei fraction (LOXIMVI): 226%

Compound: Cn1c(=O)n(-c2ccc(C(C)(C)C#N)cc2)c2c3cc(-c4cnc5ccccc5c4)ccc3ncc21 + Cn1cc(/C=C2\C(=O)Nc3cccnc32)c2ccccc21 [GW441756] (first compound 0.004 µM, partner dose 0.4 µM)
- cleaved PARP positive nuclei fraction (501Mel): 71%
- cleaved PARP positive nuclei fraction (A101D): 9.16%
- cleaved PARP positive nuclei fraction (A2058): 27.9%
- cleaved PARP positive nuclei fraction (C32): 41.2%
- cleaved PARP positive nuclei fraction (CBRC008): 25.8%
- cleaved PARP positive nuclei fraction (CBRC014): 63%
- cleaved PARP positive nuclei fraction (CBRC016): 35.6%
- cleaved PARP positive nuclei fraction (CBRC017): 57.2%
- cleaved PARP positive nuclei fraction (COLO792): 120%
- cleaved PARP positive nuclei fraction (COLO800): 46.6%
- cleaved PARP positive nuclei fraction (COLO829): 132%
- cleaved PARP positive nuclei fraction (G361): 65.5%
- cleaved PARP positive nuclei fraction (IPC-298): 51%
- cleaved PARP positive nuclei fraction (IST-MEL1): 74.2%
- cleaved PARP positive nuclei fraction (LB2518-MEL): 64.1%
- cleaved PARP positive nuclei fraction (LOXIMVI): 129%

Compound: O=C(O)[C@@H]1[O][Sb](=[O])([O][Sb]2(=[O])[O][C@H]([C@H](O)CO)[C@H](O)[C@H](C(=O)O)[O]2)[O][C@H]([C@H](O)CO)[C@@H]1O (some centres undefined) [stibogluconate] + Cn1cc(/C=C2\C(=O)Nc3cccnc32)c2ccccc21 [GW441756] (first compound 2 µM, partner dose 0.4 µM)
- cleaved PARP positive nuclei fraction (501Mel): 31.6%
- cleaved PARP positive nuclei fraction (A101D): 8.74%
- cleaved PARP positive nuclei fraction (A2058): 108%
- cleaved PARP positive nuclei fraction (C32): 69.1%
- cleaved PARP positive nuclei fraction (CBRC008): 62.3%
- cleaved PARP positive nuclei fraction (CBRC014): 103%
- cleaved PARP positive nuclei fraction (CBRC016): 39.9%
- cleaved PARP positive nuclei fraction (CBRC017): 75.9%
- cleaved PARP positive nuclei fraction (COLO792): 118%
- cleaved PARP positive nuclei fraction (COLO800): 43.5%
- cleaved PARP positive nuclei fraction (COLO829): 79.8%
- cleaved PARP positive nuclei fraction (G361): 81.9%
- cleaved PARP positive nuclei fraction (IPC-298): 60.3%
- cleaved PARP positive nuclei fraction (IST-MEL1): 68.8%
- cleaved PARP positive nuclei fraction (LB2518-MEL): 62.3%
- cleaved PARP positive nuclei fraction (LOXIMVI): 200%

Compound: CNC(=O)c1cc(Oc2ccc(NC(=O)Nc3ccc(Cl)c(C(F)(F)F)c3)cc2)ccn1 [sorafenib] + COc1ccc(COc2ccc(Cc3cnc(N)nc3N)cc2OC)cc1 [GW2580] (first compound 0.4 µM, partner dose 1 µM)
- cleaved PARP positive nuclei fraction (501Mel): 289%
- cleaved PARP positive nuclei fraction (A101D): 20%
- cleaved PARP positive nuclei fraction (A2058): 55.5%
- cleaved PARP positive nuclei fraction (C32): 37.7%
- cleaved PARP positive nuclei fraction (CBRC008): 49.9%
- cleaved PARP positive nuclei fraction (CBRC014): 93.2%
- cleaved PARP positive nuclei fraction (CBRC016): 175%
- cleaved PARP positive nuclei fraction (CBRC017): 181%
- cleaved PARP positive nuclei fraction (COLO792): 51.8%
- cleaved PARP positive nuclei fraction (COLO800): 52.4%
- cleaved PARP positive nuclei fraction (COLO829): 122%
- cleaved PARP positive nuclei fraction (G361): 97.9%
- cleaved PARP positive nuclei fraction (IPC-298): 222%
- cleaved PARP positive nuclei fraction (IST-MEL1): 31%
- cleaved PARP positive nuclei fraction (LB2518-MEL): 34.6%
- cleaved PARP positive nuclei fraction (LOXIMVI): 51.5%

Compound: Cc1cc(Nc2cc(N3CCN(C)CC3)nc(/C=C/c3ccccc3)n2)n[nH]1 + COc1ccc2c(c1)CCC1C2CCC2(C)C(NCCCCCCN3C(=O)C=CC3=O)CCC12 [U73122] (first compound 0.04 µM, partner dose 0.4 µM)
- cleaved PARP positive nuclei fraction (501Mel): 224%
- cleaved PARP positive nuclei fraction (A101D): 47.3%
- cleaved PARP positive nuclei fraction (A2058): 36.8%
- cleaved PARP positive nuclei fraction (C32): 81.8%
- cleaved PARP positive nuclei fraction (CBRC008): 140%
- cleaved PARP positive nuclei fraction (CBRC014): 102%
- cleaved PARP positive nuclei fraction (CBRC016): 91.3%
- cleaved PARP positive nuclei fraction (CBRC017): 79.2%
- cleaved PARP positive nuclei fraction (COLO792): 58%
- cleaved PARP positive nuclei fraction (COLO800): 157%
- cleaved PARP positive nuclei fraction (COLO829): 125%
- cleaved PARP positive nuclei fraction (G361): 149%
- cleaved PARP positive nuclei fraction (IPC-298): 46%
- cleaved PARP positive nuclei fraction (IST-MEL1): 89.6%
- cleaved PARP positive nuclei fraction (LB2518-MEL): 93.1%
- cleaved PARP positive nuclei fraction (LOXIMVI): 106%

Compound: Nc1ccn([C@@H]2O[C@H](CO)[C@@H](O)C2(F)F)c(=O)n1 [gemcitabine] + O=c1cc(-c2cccc3c2Sc2ccccc2S3)oc(N2CCOCC2)c1 [KU55933] (first compound 0.0004 µM, partner dose 1 µM)
- cleaved PARP positive nuclei fraction (501Mel): 55.2%
- cleaved PARP positive nuclei fraction (A101D): 21%
- cleaved PARP positive nuclei fraction (A2058): 26.3%
- cleaved PARP positive nuclei fraction (C32): 40.1%
- cleaved PARP positive nuclei fraction (CBRC008): 373%
- cleaved PARP positive nuclei fraction (CBRC014): 105%
- cleaved PARP positive nuclei fraction (CBRC016): 110%
- cleaved PARP positive nuclei fraction (CBRC017): 136%
- cleaved PARP positive nuclei fraction (COLO792): 74.9%
- cleaved PARP positive nuclei fraction (COLO800): 27.7%
- cleaved PARP positive nuclei fraction (COLO829): 145%
- cleaved PARP positive nuclei fraction (G361): 89.9%
- cleaved PARP positive nuclei fraction (IPC-298): 100%
- cleaved PARP positive nuclei fraction (IST-MEL1): 181%
- cleaved PARP positive nuclei fraction (LB2518-MEL): 53.1%
- cleaved PARP positive nuclei fraction (LOXIMVI): 97.8%

Compound: Cn1c(=O)n(-c2ccc(C(C)(C)C#N)cc2)c2c3cc(-c4cnc5ccccc5c4)ccc3ncc21 + COc1cc2ncnc(Nc3ccc(Oc4ccccc4)cc3)c2cc1OC [SrcI1] (first compound 0.004 µM, partner dose 2 µM)
- cleaved PARP positive nuclei fraction (501Mel): 156%
- cleaved PARP positive nuclei fraction (A101D): 23%
- cleaved PARP positive nuclei fraction (A2058): 136%
- cleaved PARP positive nuclei fraction (C32): 185%
- cleaved PARP positive nuclei fraction (CBRC008): 111%
- cleaved PARP positive nuclei fraction (CBRC014): 91.1%
- cleaved PARP positive nuclei fraction (CBRC016): 19.5%
- cleaved PARP positive nuclei fraction (CBRC017): 79%
- cleaved PARP positive nuclei fraction (COLO792): 182%
- cleaved PARP positive nuclei fraction (COLO800): 168%
- cleaved PARP positive nuclei fraction (COLO829): 99.6%
- cleaved PARP positive nuclei fraction (G361): 114%
- cleaved PARP positive nuclei fraction (IPC-298): 128%
- cleaved PARP positive nuclei fraction (IST-MEL1): 220%
- cleaved PARP positive nuclei fraction (LB2518-MEL): 126%
- cleaved PARP positive nuclei fraction (LOXIMVI): 67.1%

Compound: CS(=O)(=O)CCNCc1ccc(-c2ccc3ncnc(Nc4ccc(OCc5cccc(F)c5)c(Cl)c4)c3c2)o1 [lapatinib] + COc1ccc(-c2ccc3c(N4CCOCC4)nc(N4C[C@@H](C)O[C@@H](C)C4)nc3n2)cc1CO [KU0063794] (first compound 0.8 µM, partner dose 0.02 µM)
- cleaved PARP positive nuclei fraction (501Mel): 65.9%
- cleaved PARP positive nuclei fraction (A101D): 55.1%
- cleaved PARP positive nuclei fraction (A2058): 152%
- cleaved PARP positive nuclei fraction (C32): 95.7%
- cleaved PARP positive nuclei fraction (CBRC008): 61.1%
- cleaved PARP positive nuclei fraction (CBRC014): 121%
- cleaved PARP positive nuclei fraction (CBRC016): 41.3%
- cleaved PARP positive nuclei fraction (CBRC017): 93.4%
- cleaved PARP positive nuclei fraction (COLO792): 70.2%
- cleaved PARP positive nuclei fraction (COLO800): 83.2%
- cleaved PARP positive nuclei fraction (COLO829): 87.3%
- cleaved PARP positive nuclei fraction (G361): 63.2%
- cleaved PARP positive nuclei fraction (IPC-298): 69.2%
- cleaved PARP positive nuclei fraction (IST-MEL1): 160%
- cleaved PARP positive nuclei fraction (LB2518-MEL): 71.1%
- cleaved PARP positive nuclei fraction (LOXIMVI): 15.3%

Compound: CC(C)C[C@H](NC(=O)[C@H](Cc1ccccc1)NC(=O)c1cnccn1)B(O)O [Bortezomib] + O=C(O)C(=O)Nc1sc2c(c1C(=O)O)CCNC2 [TCS401] (first compound 0.001 µM, partner dose 1.66667 µM)
- cleaved PARP positive nuclei fraction (501Mel): 179%
- cleaved PARP positive nuclei fraction (A101D): 126%
- cleaved PARP positive nuclei fraction (A2058): 94.4%
- cleaved PARP positive nuclei fraction (C32): 50.3%
- cleaved PARP positive nuclei fraction (CBRC008): 939%
- cleaved PARP positive nuclei fraction (CBRC014): 186%
- cleaved PARP positive nuclei fraction (CBRC016): 520%
- cleaved PARP positive nuclei fraction (CBRC017): 132%
- cleaved PARP positive nuclei fraction (COLO792): 72.6%
- cleaved PARP positive nuclei fraction (COLO800): 23.1%
- cleaved PARP positive nuclei fraction (COLO829): 319%
- cleaved PARP positive nuclei fraction (G361): 989%
- cleaved PARP positive nuclei fraction (IPC-298): 63%
- cleaved PARP positive nuclei fraction (IST-MEL1): 178%
- cleaved PARP positive nuclei fraction (LB2518-MEL): 61.1%
- cleaved PARP positive nuclei fraction (LOXIMVI): 152%
